Data as given in US20030236190A1.
These are yes or no findings as the source states them, for the method shown. Some binding calls cover weakened binding; strength is not graded here.

Target: Insulin receptor prepared according to Bass et al., 1996: soluble human insulin receptor-immunoglobulin heavy chain chimera (human), P06213
Assay: FP competition against FITC-RP9 on sIR-Fc
Conditions: remark: other sources report otherwise

binding: binds
B1: C1 (peptide)
peptide: CWARPCGDAANFYDWFVQQAS
